Experimental data published in the supplement of paper PMC10849652.
Some of the results follow.

The chains behind the UniProt entries cited, without tags or fusion partners. Where a name states a change or a piece, a line headed by the entry shows the natural chain unless it says otherwise.
UniProt Q9UJU6: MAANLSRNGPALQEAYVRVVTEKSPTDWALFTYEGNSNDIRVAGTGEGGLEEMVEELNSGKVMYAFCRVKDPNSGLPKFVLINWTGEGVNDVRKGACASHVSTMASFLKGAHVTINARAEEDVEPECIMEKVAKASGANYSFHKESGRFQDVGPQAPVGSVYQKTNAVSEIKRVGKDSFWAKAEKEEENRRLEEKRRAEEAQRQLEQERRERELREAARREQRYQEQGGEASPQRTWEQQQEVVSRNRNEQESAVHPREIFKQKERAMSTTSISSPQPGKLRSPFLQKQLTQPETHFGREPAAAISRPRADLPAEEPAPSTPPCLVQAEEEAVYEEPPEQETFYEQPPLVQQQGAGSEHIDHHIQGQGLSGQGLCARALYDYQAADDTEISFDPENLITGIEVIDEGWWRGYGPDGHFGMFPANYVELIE
UniProt Q86XP3: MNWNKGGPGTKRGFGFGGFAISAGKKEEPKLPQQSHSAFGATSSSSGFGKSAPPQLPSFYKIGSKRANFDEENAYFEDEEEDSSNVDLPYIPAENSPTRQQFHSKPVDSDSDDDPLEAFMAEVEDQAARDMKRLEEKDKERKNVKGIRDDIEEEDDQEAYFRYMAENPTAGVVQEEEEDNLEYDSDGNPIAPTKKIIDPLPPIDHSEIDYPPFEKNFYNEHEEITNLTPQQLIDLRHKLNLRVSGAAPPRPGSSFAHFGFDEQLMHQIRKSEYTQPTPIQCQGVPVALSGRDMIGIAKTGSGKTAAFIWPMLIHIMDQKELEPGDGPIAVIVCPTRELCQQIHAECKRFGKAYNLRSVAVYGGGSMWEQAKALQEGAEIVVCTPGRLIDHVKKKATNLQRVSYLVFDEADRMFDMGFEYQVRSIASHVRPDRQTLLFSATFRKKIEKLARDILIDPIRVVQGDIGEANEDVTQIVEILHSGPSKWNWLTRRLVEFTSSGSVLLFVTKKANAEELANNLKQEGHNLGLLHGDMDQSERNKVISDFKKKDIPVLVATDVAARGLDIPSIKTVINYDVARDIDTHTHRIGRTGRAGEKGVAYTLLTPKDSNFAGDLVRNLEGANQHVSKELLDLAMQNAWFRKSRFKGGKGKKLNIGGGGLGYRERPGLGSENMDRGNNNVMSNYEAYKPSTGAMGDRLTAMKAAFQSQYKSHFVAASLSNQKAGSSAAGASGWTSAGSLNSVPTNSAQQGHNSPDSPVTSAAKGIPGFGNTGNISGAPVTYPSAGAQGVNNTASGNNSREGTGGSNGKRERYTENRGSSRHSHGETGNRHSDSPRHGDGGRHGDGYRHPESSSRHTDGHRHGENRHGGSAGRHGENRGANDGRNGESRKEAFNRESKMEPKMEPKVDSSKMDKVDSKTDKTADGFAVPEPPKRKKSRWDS
UniProt Q8WUY9, whole entry, looked up: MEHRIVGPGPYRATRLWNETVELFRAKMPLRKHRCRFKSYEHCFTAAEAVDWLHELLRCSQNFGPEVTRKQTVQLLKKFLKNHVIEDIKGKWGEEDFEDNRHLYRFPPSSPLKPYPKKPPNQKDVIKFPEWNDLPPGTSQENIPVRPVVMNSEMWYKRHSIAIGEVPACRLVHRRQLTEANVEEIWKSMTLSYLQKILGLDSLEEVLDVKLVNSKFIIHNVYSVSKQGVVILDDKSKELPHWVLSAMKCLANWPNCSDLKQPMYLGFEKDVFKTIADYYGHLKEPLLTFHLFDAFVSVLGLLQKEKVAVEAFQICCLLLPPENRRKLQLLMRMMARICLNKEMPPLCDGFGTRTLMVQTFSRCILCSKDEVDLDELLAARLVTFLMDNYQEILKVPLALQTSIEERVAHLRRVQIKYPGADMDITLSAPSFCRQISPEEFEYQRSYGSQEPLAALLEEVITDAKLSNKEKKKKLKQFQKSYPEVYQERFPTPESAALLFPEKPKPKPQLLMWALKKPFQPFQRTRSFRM
UniProt Q15438: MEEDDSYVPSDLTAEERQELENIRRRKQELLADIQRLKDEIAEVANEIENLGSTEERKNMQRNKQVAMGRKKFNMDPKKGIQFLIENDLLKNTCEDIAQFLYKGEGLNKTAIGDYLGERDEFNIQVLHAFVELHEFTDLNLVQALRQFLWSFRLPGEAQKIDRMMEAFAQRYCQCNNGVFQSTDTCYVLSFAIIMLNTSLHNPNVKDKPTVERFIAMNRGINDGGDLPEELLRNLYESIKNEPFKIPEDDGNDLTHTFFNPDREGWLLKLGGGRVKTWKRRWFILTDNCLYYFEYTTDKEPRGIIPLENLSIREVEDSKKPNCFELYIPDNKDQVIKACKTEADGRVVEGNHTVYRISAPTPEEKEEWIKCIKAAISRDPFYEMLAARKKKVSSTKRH
UniProt Q8IZD4: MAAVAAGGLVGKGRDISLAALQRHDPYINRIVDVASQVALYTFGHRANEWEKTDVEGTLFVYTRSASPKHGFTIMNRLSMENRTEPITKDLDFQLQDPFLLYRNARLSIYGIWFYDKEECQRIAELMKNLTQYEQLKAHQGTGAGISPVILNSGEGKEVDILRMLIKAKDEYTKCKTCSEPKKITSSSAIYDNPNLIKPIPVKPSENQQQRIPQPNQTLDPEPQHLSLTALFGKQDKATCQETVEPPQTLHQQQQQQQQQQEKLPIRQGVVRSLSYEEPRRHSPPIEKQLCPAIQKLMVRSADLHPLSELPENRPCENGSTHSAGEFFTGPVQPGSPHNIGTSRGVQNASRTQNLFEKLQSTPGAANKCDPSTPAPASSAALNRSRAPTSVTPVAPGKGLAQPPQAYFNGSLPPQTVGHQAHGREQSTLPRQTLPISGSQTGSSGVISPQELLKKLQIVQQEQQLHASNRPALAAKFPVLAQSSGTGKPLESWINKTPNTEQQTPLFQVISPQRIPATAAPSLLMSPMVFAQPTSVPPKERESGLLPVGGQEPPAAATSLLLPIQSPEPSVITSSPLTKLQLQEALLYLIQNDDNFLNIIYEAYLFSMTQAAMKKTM
UniProt Q8WVC6: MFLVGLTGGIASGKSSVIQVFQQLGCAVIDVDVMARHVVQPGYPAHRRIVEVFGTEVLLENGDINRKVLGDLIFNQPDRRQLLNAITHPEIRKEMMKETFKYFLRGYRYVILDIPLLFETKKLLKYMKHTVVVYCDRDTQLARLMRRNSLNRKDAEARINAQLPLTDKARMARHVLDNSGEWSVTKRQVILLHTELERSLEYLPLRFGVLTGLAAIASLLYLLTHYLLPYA
UniProt Q96JK2, whole entry, looked up: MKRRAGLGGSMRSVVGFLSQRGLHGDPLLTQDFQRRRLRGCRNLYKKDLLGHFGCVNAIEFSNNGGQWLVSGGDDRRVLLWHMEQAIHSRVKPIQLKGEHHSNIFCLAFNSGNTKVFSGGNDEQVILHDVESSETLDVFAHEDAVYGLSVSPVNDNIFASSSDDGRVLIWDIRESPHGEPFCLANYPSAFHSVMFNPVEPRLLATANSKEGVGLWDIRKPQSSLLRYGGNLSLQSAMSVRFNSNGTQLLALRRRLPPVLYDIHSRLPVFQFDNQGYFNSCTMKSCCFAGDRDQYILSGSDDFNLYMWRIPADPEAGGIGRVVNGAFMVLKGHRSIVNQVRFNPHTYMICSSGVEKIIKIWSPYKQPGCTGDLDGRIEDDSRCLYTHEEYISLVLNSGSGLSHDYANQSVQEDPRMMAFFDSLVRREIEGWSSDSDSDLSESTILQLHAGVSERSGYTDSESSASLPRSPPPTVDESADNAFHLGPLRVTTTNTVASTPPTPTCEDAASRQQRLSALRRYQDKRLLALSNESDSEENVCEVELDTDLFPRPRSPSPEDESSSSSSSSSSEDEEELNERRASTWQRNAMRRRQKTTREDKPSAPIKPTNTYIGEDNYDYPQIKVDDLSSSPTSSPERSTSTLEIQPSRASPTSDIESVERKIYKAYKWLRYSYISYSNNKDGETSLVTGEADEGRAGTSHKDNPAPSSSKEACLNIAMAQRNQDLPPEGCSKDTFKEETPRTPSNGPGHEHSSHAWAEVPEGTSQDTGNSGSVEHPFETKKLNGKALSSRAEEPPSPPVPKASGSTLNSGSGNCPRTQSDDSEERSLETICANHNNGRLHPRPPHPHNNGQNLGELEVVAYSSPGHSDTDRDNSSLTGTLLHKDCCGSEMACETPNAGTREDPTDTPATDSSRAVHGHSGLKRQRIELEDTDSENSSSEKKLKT
UniProt O75140: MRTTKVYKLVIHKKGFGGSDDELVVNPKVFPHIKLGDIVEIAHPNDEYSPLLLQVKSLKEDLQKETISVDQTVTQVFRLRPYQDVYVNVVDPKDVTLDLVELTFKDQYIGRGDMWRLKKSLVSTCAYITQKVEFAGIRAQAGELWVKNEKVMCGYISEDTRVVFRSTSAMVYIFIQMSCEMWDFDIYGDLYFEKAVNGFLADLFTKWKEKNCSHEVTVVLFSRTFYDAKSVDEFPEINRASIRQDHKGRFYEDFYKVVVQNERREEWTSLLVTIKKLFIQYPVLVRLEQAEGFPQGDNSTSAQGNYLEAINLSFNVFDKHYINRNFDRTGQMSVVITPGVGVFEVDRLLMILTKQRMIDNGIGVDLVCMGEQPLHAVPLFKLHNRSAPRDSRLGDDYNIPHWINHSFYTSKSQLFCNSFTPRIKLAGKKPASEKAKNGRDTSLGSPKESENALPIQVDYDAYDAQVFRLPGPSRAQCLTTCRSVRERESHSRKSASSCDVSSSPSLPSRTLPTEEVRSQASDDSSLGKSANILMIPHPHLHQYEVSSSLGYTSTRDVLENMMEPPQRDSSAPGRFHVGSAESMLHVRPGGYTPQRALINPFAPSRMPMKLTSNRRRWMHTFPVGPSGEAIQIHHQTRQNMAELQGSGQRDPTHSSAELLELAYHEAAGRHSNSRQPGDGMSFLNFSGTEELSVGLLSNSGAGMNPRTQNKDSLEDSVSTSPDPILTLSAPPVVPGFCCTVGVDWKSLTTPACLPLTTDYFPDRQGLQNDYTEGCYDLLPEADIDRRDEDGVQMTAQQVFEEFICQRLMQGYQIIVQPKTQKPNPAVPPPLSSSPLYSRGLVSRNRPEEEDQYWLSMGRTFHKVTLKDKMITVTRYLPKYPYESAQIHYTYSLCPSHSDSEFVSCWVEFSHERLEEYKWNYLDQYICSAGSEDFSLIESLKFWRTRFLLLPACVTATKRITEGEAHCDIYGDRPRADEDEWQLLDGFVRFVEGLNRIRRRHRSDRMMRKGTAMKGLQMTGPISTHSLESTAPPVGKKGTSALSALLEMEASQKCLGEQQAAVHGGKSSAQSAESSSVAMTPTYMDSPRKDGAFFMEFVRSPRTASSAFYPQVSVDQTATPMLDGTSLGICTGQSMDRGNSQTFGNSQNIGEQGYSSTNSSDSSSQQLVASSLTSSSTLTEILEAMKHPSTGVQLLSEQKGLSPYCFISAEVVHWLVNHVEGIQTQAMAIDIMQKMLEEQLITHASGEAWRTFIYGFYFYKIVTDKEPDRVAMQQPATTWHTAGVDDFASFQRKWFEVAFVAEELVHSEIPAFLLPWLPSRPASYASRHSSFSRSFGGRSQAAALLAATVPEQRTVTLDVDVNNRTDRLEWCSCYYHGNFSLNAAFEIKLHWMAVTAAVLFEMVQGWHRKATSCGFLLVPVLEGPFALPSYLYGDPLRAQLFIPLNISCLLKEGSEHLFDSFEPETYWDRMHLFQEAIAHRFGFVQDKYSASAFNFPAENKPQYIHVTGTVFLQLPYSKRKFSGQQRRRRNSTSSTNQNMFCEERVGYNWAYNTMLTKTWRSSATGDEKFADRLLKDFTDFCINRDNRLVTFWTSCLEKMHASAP
UniProt Q6ZN54: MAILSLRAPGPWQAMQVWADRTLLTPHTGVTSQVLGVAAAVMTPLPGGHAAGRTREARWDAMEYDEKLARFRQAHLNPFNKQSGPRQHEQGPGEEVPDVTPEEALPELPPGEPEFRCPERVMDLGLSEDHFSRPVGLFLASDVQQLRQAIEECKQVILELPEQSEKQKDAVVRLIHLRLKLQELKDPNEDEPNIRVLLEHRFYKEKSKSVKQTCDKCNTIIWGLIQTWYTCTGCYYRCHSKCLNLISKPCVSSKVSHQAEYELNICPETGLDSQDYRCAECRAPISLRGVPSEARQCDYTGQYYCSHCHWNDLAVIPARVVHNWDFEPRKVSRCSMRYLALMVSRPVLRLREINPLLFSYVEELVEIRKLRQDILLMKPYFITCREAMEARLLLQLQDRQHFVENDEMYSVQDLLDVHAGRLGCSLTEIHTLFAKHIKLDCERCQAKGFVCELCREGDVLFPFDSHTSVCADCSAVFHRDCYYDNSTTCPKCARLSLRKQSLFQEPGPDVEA
UniProt Q9NX09: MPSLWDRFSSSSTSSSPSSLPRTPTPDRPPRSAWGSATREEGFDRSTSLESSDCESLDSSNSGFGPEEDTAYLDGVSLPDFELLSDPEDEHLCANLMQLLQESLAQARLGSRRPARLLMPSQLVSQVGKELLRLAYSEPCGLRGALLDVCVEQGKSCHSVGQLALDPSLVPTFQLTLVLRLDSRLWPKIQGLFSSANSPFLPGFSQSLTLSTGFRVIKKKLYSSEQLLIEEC
UniProt Q15038: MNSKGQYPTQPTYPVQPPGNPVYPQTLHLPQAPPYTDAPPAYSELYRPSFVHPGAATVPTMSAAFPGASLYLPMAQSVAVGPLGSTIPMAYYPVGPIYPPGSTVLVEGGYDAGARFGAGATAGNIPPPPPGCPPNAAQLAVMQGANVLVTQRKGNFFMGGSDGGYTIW

Experiments:
Experiment in all cases: log2 fold change, soluble protein after heating vs DMSO (PISA); higher = thermal stabilisation; K562 lysate, 10 uM; active = over 0.2 and 3.5 SD of the protein, either way, in both replicates (recomputed)
[1] = compound: Cc1cn(-c2cc(NC(=O)c3ccc(C)c(Nc4nccc(-c5cccnc5)n4)c3)cc(C(F)(F)F)c2)cn1 [nilotinib]
In short: (§1)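 The values are log-two fold changes in thermal stability compared with solvent controls and come from duplicates. They were obtained by TMTpro 16plex LC-MS/MS, with channel sums equalised, on the supernatant after 21,000xg for 90 min. That supernatant came from crude K562 extract at 1 mg/mL protein treated with 10 μM compound for 30 min, heated for 3 min across 48°C-58°C, pooled and brought to 0.5% NP-40 at 4°C.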

[2] = compound: Cc1nc(Nc2n[nH]c3c2CN(C(=O)N[C@H](CN(C)C)c2ccccc2)C3(C)C)c2sccc2n1
In short: as §1

[3] = compound: Cc1nc(Nc2ncc(C(=O)Nc3c(C)cccc3Cl)s2)cc(N2CCN(CCO)CC2)n1 [dasatinib]
In short: as §1

[4] = compound: Cc1ncc(-c2ccnc(Nc3ccc(S(C)(=O)=O)cc3)n2)n1C(C)C
In short: as §1

[5] = compound: Cn1cc(-c2ccc3c(c2)CCN3C(=O)Cc2cccc(C(F)(F)F)c2)c2c(N)ncnc21
In short: as §1

[6] = compound: Cn1cc(CNCC2CCN(c3ncc(C(=O)NO)cn3)CC2)c2ccccc21 [quisinostat]
In short: as §1

[7] = compound: Cn1cncc1[C@@](N)(c1ccc(Cl)cc1)c1ccc2c(c1)c(-c1cccc(Cl)c1)cc(=O)n2C [tipifarnib]
In short: as §1

[8] = compound: NC(=O)Nc1cc(-c2cccc(F)c2)sc1C(=O)N[C@H]1CCCNC1
In short: as §1

[9] = compound: NC(=O)c1cnc(N[C@@H]2CCCC[C@@H]2N)nc1Nc1cccc(-n2nccn2)c1
In short: as §1

[10] = compound: NC1(c2ccc(-c3nc4ccn5c(=O)[nH]nc5c4cc3-c3ccccc3)cc2)CCC1
In short: as §1

Measured: log2 fold change

DCK (UniProt P27707)
inactive: [1] 0.031 | [2] 0.056 | [3] 0.074 | [4] 0.077 | [5] -0.007 | [6] -0.06 | [7] -0.008 | [8] -0.024 | [9] -0.012 | [10] -0.02

DCUN1D3 (UniProt Q8IWE4)
inactive: [1] -0.012 | [2] 0.07 | [3] -0.143 | [4] -0.031 | [5] -0.104 | [7] 0.029

DBNL (UniProt Q9UJU6)
inactive: [1] -0.058 | [2] -0.081 | [3] -0.011 | [4] -0.109 | [5] 0.156 | [7] -0.002 | [9] -0.05 | [10] 0.062

DDX51 (UniProt Q8N8A6)
inactive: [1] 0.159 | [2] -0.149 | [3] -0.049 | [4] -0.015 | [5] 0.069 | [6] -0.054 | [7] 0.138 | [8] 0.054 | [9] 0.073 | [10] 0.002

DENND10 (UniProt Q8TCE6)
inactive: [1] -0.022 | [2] 0.052 | [3] -0.033 | [4] -0.064 | [5] 0.018 | [6] -0.091 | [7] 0.016 | [8] 0.16 | [9] -0.013 | [10] -0.036

DDX46, A0A0C4DG89
inactive: [1] -0.026 | [2] -0.293 | [3] 0.027 | [4] -0.195 | [5] -0.04 | [7] -0.281 | [9] 0.032

DDX5 (UniProt P17844)
inactive: [1] -0.031 | [2] 0.025 | [3] 0.009 | [4] -0.017 | [5] 0.036 | [6] 0.035 | [7] 0 | [8] -0.048 | [9] -0.008 | [10] -0.004

DDX11 (UniProt Q96FC9)
inactive: [1] -0.024 | [2] -0.061 | [3] -0.03 | [4] -0.012 | [5] -0.011 | [6] -0.119 | [7] 0.074 | [8] 0.04 | [10] 0.017

DDX42 (UniProt Q86XP3)
inactive: [1] 0.009 | [2] 0.023 | [3] -0.024 | [4] 0.026 | [5] 0.015 | [6] 0.006 | [7] 0.028 | [8] 0.041 | [9] 0 | [10] 0

DEPDC1B (UniProt Q8WUY9)
inactive: [1] 0.023 | [2] 0.02 | [3] -0.448 | [4] 0.015 | [5] 0.113 | [7] -0.17

CYTH1 (UniProt Q15438)
inactive: [1] 0.056 | [2] -0.143 | [4] 0.162 | [6] -0.007 | [7] -0.209 | [8] -0.009 | [9] 0.087 | [10] 0.018

CYP51A1 (UniProt Q16850)
active: [7] 0.664
inactive: [1] 0.124 | [2] -0.026 | [3] 0.048 | [4] 0.034 | [5] 0.083 | [6] -0.021 | [8] -0.016 | [9] -0.009 | [10] -0.081

DDX46 (UniProt Q7L014)
inactive: [1] -0.01 | [2] 0.005 | [3] -0.04 | [4] 0.012 | [5] -0.01 | [6] -0.051 | [7] 0.003 | [8] -0.008 | [9] 0.011 | [10] 0.027

DDX41 (UniProt Q9UJV9)
inactive: [1] -0.013 | [2] 0.029 | [3] 0.056 | [4] -0.001 | [5] 0.068 | [6] -0.042 | [7] -0.01 | [8] 0.009 | [9] -0.007 | [10] -0.003

DCUN1D1 (UniProt C9JVE2)
inactive: [3] 0.142 | [5] -0.011 | [6] -0.414 | [8] 0.139 | [9] -0.114 | [10] -0.228

DCLRE1C (UniProt Q96SD1)
inactive: [6] -0.139 | [8] 0.035 | [9] 0.088

DDB1 isoform 2 (UniProt Q16531)
inactive: [9] -0.168

CYP4V2 (UniProt Q6ZWL3)
inactive: [3] -0.041 | [5] 0.049 | [6] 0.103 | [8] -0.026 | [9] -0.101 | [10] -0.033

DCP1B (UniProt Q8IZD4)
inactive: [3] -0.097 | [5] 0.133 | [6] 0.019 | [8] 0.115 | [10] 0.082

DCTD (UniProt D6RAD7)
inactive: [1] -0.13 | [2] 0.017 | [4] 0.083 | [7] 0.109

DDAH1 (UniProt O94760)
inactive: [3] -0.244 | [5] 0.174 | [6] -0.013 | [8] -0.003 | [9] -0.034 | [10] -0.016

DENND5A (UniProt Q6IQ26)
inactive: [3] 0.054 | [5] 0.074 | [6] -0.141 | [8] 0.11

CYTH3 (UniProt O43739)
inactive: [9] -0.053

CYP4F11 (UniProt Q9HBI6)
inactive: [3] 1.32 | [5] -0.148

DCAKD (UniProt Q8WVC6)
inactive: [1] 0.076 | [2] -0.056 | [4] -0.152 | [7] 0.276

DET1 isoform 2 (UniProt Q7L5Y6)
inactive: [6] -0.031 | [8] 0.067 | [9] -0.16 | [10] -0.096

DCAF5 (UniProt Q96JK2)
inactive: [3] -0.046 | [5] 0.037 | [6] 0.057 | [8] 0.064

DCBLD1 (UniProt Q8N8Z6)
inactive: [3] 0.144 | [5] -0.041 | [9] 0.116

Two successive records out of the list so far:
DENND10 (UniProt Q8TCE6)
inactive: [1] -0.022 | [2] 0.052 | [3] -0.033 | [4] -0.064 | [5] 0.018 | [6] -0.091 | [7] 0.016 | [8] 0.16 | [9] -0.013 | [10] -0.036

DDX46, A0A0C4DG89
inactive: [1] -0.026 | [2] -0.293 | [3] 0.027 | [4] -0.195 | [5] -0.04 | [7] -0.281 | [9] 0.032

Continued.

DDX19A isoform 2 (UniProt Q9NUU7)
inactive: [6] -0.613 | [8] 0.053

DEPDC5 (UniProt O75140)
inactive: [1] -0.149 | [2] 0.33 | [4] 0.024 | [7] 0.039 | [10] -0.014

DEAF1 (UniProt O75398)
inactive: [3] -0.138 | [5] -0.202

DAZAP1 (UniProt K7EQ02)
inactive: [1] -0.221 | [2] 0.096 | [4] 0.119 | [7] -0.039

DEF8 (UniProt Q6ZN54)
inactive: [3] 0.035 | [5] 0.026 | [6] -0.123 | [8] 0.056 | [10] 0.013

DENND1C (UniProt Q8IV53)
inactive: [3] -0.007 | [5] -0.038 | [6] -0.172 | [8] 0.043 | [10] -0.078

DEPDC7 (UniProt Q96QD5)
inactive: [1] -0.021 | [2] -0.181 | [4] 0.27 | [7] -0.269

DDIT4 (UniProt Q9NX09)
inactive: [6] -0.086 | [8] 0.083

DAZAP2 (UniProt Q15038)
inactive: [10] -0.113

DAPK3 (UniProt O43293)
inactive: [9] 0.008
